Source: PMC9509566
No constants are given. Whether binding was seen depends on the method and setting. In cells and extracts the contact can be indirect. Some results given as binding are weak or reduced against the parent protein; the word gives no strength.

Amino acid sequences for entries named in this document (tags omitted).
UniProt P06241: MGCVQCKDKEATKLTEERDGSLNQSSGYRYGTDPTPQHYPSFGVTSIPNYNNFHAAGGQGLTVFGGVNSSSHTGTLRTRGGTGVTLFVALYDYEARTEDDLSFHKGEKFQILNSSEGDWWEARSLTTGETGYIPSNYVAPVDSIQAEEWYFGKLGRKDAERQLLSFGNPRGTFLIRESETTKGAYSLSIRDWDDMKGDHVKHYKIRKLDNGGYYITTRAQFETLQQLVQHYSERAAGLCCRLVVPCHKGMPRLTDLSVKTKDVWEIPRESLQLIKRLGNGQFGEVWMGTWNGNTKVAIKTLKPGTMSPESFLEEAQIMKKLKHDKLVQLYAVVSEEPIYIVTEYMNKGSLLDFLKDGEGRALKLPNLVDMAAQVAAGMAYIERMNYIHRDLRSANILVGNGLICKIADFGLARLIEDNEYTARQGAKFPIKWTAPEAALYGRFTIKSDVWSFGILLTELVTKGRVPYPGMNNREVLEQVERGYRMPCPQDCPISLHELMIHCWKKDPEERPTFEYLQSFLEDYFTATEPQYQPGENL

Molecular target: T1, 2B4 (CD244) (human (endogenous in NK-92)) (UniProt Q9BZW8)
T1 sequence: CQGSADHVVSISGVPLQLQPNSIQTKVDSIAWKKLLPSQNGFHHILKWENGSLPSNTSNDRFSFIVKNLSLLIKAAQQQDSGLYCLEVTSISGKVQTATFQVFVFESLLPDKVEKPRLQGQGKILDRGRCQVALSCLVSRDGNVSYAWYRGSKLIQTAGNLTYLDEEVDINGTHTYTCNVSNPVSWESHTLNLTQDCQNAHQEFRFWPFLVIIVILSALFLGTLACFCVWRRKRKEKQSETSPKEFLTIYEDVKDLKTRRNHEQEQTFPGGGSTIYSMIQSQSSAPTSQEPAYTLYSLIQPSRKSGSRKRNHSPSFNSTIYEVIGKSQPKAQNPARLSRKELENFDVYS
Assay: co-IP; endogenous proteins; lysates (IP lysis buffer with protease inhibitors) of NK-92 cells, uninfected, T. gondii infected, or infected and treated with anti-2B4 antibody; IP with 1 ug anti-2B4, anti-SHP-2 or anti-Fyn antibody at 4 C overnight, protein A/G-agarose beads, Western blot

binding: binds
Substance: Fyn (from UniProt P06241 1-537) (enzyme)
